In article PMC11018632 one finds binding data, which are given here for 1 molecule.

By UniProt entry, the sequences of proteins in these tests, tags left out. Where a name states a change or a piece, a line headed by the entry shows the natural chain unless it says otherwise.
UniProt Q96SW2: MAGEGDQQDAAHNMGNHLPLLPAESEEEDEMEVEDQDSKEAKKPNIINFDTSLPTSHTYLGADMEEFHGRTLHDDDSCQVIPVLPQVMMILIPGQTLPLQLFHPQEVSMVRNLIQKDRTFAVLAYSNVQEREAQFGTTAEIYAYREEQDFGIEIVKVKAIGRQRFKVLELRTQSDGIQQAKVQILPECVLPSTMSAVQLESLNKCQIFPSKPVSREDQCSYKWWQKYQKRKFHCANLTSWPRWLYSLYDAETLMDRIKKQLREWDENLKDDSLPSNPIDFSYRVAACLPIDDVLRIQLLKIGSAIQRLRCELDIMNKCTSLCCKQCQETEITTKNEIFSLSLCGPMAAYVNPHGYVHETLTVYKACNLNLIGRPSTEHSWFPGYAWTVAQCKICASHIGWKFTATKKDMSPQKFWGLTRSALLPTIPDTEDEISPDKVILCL
UniProt P21554: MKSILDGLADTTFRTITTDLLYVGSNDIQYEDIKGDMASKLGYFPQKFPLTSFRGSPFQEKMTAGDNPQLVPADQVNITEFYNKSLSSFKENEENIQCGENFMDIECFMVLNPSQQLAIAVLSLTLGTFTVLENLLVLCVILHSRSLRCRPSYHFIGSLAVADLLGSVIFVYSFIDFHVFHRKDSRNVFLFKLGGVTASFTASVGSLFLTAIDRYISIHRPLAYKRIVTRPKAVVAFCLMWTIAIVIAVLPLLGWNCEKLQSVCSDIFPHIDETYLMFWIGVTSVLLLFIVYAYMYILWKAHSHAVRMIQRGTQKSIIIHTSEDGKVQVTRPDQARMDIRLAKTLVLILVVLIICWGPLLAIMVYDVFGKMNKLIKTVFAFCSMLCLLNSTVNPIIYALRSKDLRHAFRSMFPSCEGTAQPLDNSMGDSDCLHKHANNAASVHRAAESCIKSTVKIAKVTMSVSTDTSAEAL

The target of this test is human 3xHA-CRBN (human) (UniProt Q96SW2). As to the kind of experiment: co-IP; HEK-293T cells, transfected; lysates in GST buffer (50 mM Tris-HCl, 10% glycerol, 100 mM NaCl, 2 mM MgCl2, 1% NP-40, pH 7.4); IP with anti-HA agarose.

No constants are given. Whether binding was seen depends on the method and setting. Binding seen in cells or lysates may run through a third protein. Some results given as binding are weak or reduced against the parent protein; the word gives no strength. Where a sequence is shown, tags or fusion partners need not be part of it.

B1: GFP-CB1R-CTD chimaera with the mid/distal CB1R-CTD stretch aa 449-460 (domain or fragment, UniProt P21554 449-460)
chain: CIKSTVKIAKVT
For B1, the binding result is “binds”.
